The source of these data is paper PMC7819943, “Rice protein-binding microarrays: a tool to detect cis-acting elements near promoter regions in rice”.

Protein sequences, listed by entry. Tags and fused reporters are not part of them.
UniProt Q0JBA9, entry or part of it: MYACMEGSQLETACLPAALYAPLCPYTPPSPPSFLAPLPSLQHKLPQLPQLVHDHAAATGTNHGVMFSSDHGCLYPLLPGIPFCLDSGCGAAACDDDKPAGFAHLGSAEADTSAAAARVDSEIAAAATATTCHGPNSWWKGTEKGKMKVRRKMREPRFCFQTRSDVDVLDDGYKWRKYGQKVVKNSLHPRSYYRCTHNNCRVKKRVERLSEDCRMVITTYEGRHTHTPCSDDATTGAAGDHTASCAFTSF

The other results are listed elsewhere or left out.

The target in the test is OsWRKY34 (Oryza sativa, UniProt Q0JBA9 1-250). In words: protein-binding microarray (RPBM); PBS, 2% BSA, 51.3 ng/ul salmon testes DNA, 50 uM zinc acetate, 200 nM TF, 25 C, 1 h; high values mean tight binding. To be noted: protein: recombinant; tags: N-terminal polyhistidine and DsRed monomer fusion (pET32a); label: CyDye5-dUTP incorporated in the synthesized complementary strand; 3' TTTTT single-stranded linker to array surface; dsDNA, one strand shown. An outline of the steps:
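Transcription factors were made in E. coli BL21-CodonPlus as N-terminal fusions to a polyhistidine tag and DsRed, then purified on Ni–NTA. After primer extension with Cy5-dUTP and blocking with 2% BSA, a custom Agilent array was exposed for 1 h at 25 °C to 200 nM protein in PBS, 2% BSA, salmon testes DNA and 50 µM zinc acetate. Washed arrays were scanned on an Axon 4000B, and the binding signal is per-feature fluorescence intensity in arbitrary units.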
With “AGATGTTTACCCGTCTCTTATCCAGGCAGTTCTACCTCGACGGAGTCACCTAGTGCAG”, the binding signal is 8850 fluorescence intensity (a.u.). The value for “GGGACCTAGGATGAACTTATTCCTTTCTGTTTCAACCATACGGAGTCACCTAGTGCAG” was 8370 fluorescence intensity (a.u.); that for “AATGGTCAAATATGTGCTAAAAGTCAACGGCGTCAAACATCGGAGTCACCTAGTGCAG” was 15700 fluorescence intensity (a.u.); that for “TTATACTTCTACCTTCTTCAGTAGTTCATCAATGTCGCGACGGAGTCACCTAGTGCAG” was 8370 fluorescence intensity (a.u.). The value for “CTTCTTTATTGCTCAGTTATAGATGTGCGCTCATTATTTGCGGAGTCACCTAGTGCAG” was 8860 fluorescence intensity (a.u.); that for “AGCCACCTCTCTCTCTCCTATCGTTTTGACCACAGAAACCCGGAGTCACCTAGTGCAG” was 9680 fluorescence intensity (a.u.).

For the sequence “CCGGCCCACGTCAGCCTGCCGCGCCTACCGTTGACTCTCCCGGAGTCACCTAGTGCAG”, the binding signal is 11600 fluorescence intensity (a.u.).

In the case of “AATGGCATGCACGTGCTTAATTAATTCCCATTTGCATGTTCGGAGTCACCTAGTGCAG”, the binding signal was 8880 fluorescence intensity (a.u.). Consider “CGCCGAACAATCCACTCCGCCCTTCATATGCGCGCACCGCCGGAGTCACCTAGTGCAG”, for which the binding signal was 8410 fluorescence intensity (a.u.). In the case of “TCTTCGTCGACACCACCCCAGCCGGTGTCCCCACGCGCTCCGGAGTCACCTAGTGCAG”, the binding signal was 10100 fluorescence intensity (a.u.). The value for “TCCCCTCACGGTGGCGTGACATGCACCAATCTCGCCCCAACGGAGTCACCTAGTGCAG” was 8820 fluorescence intensity (a.u.); that for “GTGGGGCCCACTGCTCGAGTGTCGGGGTATGGTCTCGGGTCGGAGTCACCTAGTGCAG” was 9290 fluorescence intensity (a.u.); that for “TTACTCTCTTTAGTCACAAATATTTAACACGGTTGACTTTCGGAGTCACCTAGTGCAG” was 8570 fluorescence intensity (a.u.). In the case of “TCTGTGGTAAGCATACCCATTAATTAATTTACGGCCACTTCGGAGTCACCTAGTGCAG”, the binding signal is 8380 fluorescence intensity (a.u.).

Take “ATCGCCATATAGGCGCCACGTGGAACGAAGACTCGGTCAACGGAGTCACCTAGTGCAG”: the binding signal is 9350 fluorescence intensity (a.u.). As to “ATGGATGCGTGTGGGAGATGGGTTGGACTGGCAAATTAAACGGAGTCACCTAGTGCAG”, the binding signal was 15100 fluorescence intensity (a.u.).

“CCTTCCCGATCCGCCCGCCTCGCCTCGTCTCCCGCCCCACCGGAGTCACCTAGTGCAG”: the binding signal was 9010 fluorescence intensity (a.u.). The value for “GATGACGTTGTTAACTTTTTATCACACGTTTGACCATTCGCGGAGTCACCTAGTGCAG” was 8510 fluorescence intensity (a.u.). The value for “TCTTTATTTAGAAGATGCTTCCACCCTATATCACTCGAGTCGGAGTCACCTAGTGCAG” was 8960 fluorescence intensity (a.u.); that for “TTTCACCCAAGCTTTCTTGCTTCCATGCTTTTTTCTTGTCCGGAGTCACCTAGTGCAG” was 8230 fluorescence intensity (a.u.).

For “TCTCATCTCTAGTAGTACTAATAGACTTCCAACAACTTCCCGGAGTCACCTAGTGCAG”, the binding signal was 8030 fluorescence intensity (a.u.). With “TTCACCTTTCCTCGCTTCAATTTACTACCCTGTTCATTCACGGAGTCACCTAGTGCAG” the figure was 10200 fluorescence intensity (a.u.). Take “TTTTTTCTACTACCTCCGTTCCATATTATTTGTCGTTTTGCGGAGTCACCTAGTGCAG”: the binding signal was 15700 fluorescence intensity (a.u.). The value for “ACCGATCGCTCGCTCGCTTCCCGCGATCTCGCCTCCGAGACGGAGTCACCTAGTGCAG” was 9230 fluorescence intensity (a.u.); that for “ACGCTTTCCTACTAGGCTTACGTAACATGTTGATCTACTACGGAGTCACCTAGTGCAG” was 10400 fluorescence intensity (a.u.). With “CTCCATCTGCGTATTTTCCAACACATCTCTCTTGCAGTTCCGGAGTCACCTAGTGCAG”, the binding signal is 9550 fluorescence intensity (a.u.). With “CTTGCATCCGTCCTCATCGGCACGAAAGTATATTCTTTATCGGAGTCACCTAGTGCAG” the figure was 9860 fluorescence intensity (a.u.). In the case of “CTTACACACACAAACTTTCAACTTTTCCGTCACATCGTTCCGGAGTCACCTAGTGCAG”, the binding signal is 9240 fluorescence intensity (a.u.). With “GTTAGACATATGTTTAAAAGTCAACGATGTTATCTATTAACGGAGTCACCTAGTGCAG” the figure was 9360 fluorescence intensity (a.u.); with “GTCGGCACCTTTGCCTCATTTTTATTGCTGCCGGTTCTAACGGAGTCACCTAGTGCAG”, 8800 fluorescence intensity (a.u.).

As for “ATTCTTCTTGGGTTAAAATTGTTACTATTTTTTTCTACAACGGAGTCACCTAGTGCAG”, the binding signal is 10000 fluorescence intensity (a.u.). As to “AAAACAATTTGGTAATGTCTGGCATGTTTATCCTCCTATACGGAGTCACCTAGTGCAG”, the binding signal is 8270 fluorescence intensity (a.u.). The value for “GATTTTGACGTCTATGATGAGAGGGGCGATGTGTATCAAACGGAGTCACCTAGTGCAG” was 8760 fluorescence intensity (a.u.); that for “CTCGCTCGCTGCCACCGCCTCCTTCGCTGCCACCATCTCCCGGAGTCACCTAGTGCAG” was 10900 fluorescence intensity (a.u.). On to “CTCTCTCCTCGTCCTGCCTCGCGACTCGGCTCCGCGAAGCCGGAGTCACCTAGTGCAG”, for which the binding signal was 11700 fluorescence intensity (a.u.).

Take “CTTAGCCTAACAAAACTAATACTCGCCATGCGTCCATCCCCGGAGTCACCTAGTGCAG”: the binding signal is 8210 fluorescence intensity (a.u.). The value for “AAAACCACCAAATCGCTTATTTTGCTTCGTTGTGATTTCCCGGAGTCACCTAGTGCAG” was 11000 fluorescence intensity (a.u.); that for “AAAAAAGTCAACCCATGTACACCGTCCGATCTCCATCCGACGGAGTCACCTAGTGCAG” was 8110 fluorescence intensity (a.u.). With “ATCAATGGTATAGTTTTCTTGGATAAAATTTCCACTACCACGGAGTCACCTAGTGCAG” the figure was 8840 fluorescence intensity (a.u.); with “CGCATCACATCCCGGTGAGCATCCCTATCCGTCACGCTCACGGAGTCACCTAGTGCAG”, 9710 fluorescence intensity (a.u.); with “GGACTGGGGCAGGAGGGAGGGGAGGAGCAGGTCGGAGAGTCGGAGTCACCTAGTGCAG”, 9740 fluorescence intensity (a.u.).

As to “AACCGGACAGGTGTGGGCGTTGACTAGTCTTCTTTAGTTTCGGAGTCACCTAGTGCAG”, the binding signal is 13300 fluorescence intensity (a.u.).
